Experiment [1] deals with T1, ZNF521-DDK-Flag (human) (UniProt Q96K83).
T1 sequence: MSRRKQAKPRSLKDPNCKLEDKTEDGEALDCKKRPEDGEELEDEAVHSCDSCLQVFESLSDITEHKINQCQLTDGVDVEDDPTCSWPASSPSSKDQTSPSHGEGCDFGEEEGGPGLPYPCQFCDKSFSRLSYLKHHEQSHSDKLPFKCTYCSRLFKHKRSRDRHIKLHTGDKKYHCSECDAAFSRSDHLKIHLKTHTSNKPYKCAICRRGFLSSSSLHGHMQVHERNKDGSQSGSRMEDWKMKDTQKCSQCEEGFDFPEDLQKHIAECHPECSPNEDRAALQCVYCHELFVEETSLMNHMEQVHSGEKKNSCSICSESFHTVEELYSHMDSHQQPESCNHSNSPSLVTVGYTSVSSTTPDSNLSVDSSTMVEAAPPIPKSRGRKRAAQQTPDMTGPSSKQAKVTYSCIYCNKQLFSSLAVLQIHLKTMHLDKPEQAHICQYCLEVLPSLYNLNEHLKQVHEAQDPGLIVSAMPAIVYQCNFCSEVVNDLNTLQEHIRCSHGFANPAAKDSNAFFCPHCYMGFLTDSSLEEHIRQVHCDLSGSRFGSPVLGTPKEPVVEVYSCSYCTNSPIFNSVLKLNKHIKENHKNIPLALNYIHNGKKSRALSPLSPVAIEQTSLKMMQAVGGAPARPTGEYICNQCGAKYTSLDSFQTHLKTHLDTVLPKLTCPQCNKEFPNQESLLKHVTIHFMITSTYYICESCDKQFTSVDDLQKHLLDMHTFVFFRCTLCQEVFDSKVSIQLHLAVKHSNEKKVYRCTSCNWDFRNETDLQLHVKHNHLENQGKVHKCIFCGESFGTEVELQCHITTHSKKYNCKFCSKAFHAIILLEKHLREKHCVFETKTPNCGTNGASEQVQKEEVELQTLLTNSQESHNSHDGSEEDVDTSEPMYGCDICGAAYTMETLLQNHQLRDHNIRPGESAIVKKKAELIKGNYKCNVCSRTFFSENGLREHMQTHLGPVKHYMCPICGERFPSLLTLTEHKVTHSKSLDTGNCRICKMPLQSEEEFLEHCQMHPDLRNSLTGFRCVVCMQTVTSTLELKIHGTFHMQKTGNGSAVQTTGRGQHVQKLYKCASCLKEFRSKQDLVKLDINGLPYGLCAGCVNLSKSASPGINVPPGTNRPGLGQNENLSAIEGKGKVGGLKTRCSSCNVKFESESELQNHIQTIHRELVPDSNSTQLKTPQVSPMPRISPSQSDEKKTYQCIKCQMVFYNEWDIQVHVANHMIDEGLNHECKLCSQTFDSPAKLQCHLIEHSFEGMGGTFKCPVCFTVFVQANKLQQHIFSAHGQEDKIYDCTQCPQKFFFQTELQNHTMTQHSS
Briefly: co-IP; ChIP samples: transfected 293T cells cross-linked with 1% formaldehyde, nuclei sonicated, IP with anti-Flag-M2 and Protein G Sepharose; proteins in the IP analysed by Western blot (Fig. 3d). (In general: A western blot detects proteins with antibodies after separation by electrophoresis.)

Chains of the proteins cited; added tags and fusions are not shown.
UniProt P08151: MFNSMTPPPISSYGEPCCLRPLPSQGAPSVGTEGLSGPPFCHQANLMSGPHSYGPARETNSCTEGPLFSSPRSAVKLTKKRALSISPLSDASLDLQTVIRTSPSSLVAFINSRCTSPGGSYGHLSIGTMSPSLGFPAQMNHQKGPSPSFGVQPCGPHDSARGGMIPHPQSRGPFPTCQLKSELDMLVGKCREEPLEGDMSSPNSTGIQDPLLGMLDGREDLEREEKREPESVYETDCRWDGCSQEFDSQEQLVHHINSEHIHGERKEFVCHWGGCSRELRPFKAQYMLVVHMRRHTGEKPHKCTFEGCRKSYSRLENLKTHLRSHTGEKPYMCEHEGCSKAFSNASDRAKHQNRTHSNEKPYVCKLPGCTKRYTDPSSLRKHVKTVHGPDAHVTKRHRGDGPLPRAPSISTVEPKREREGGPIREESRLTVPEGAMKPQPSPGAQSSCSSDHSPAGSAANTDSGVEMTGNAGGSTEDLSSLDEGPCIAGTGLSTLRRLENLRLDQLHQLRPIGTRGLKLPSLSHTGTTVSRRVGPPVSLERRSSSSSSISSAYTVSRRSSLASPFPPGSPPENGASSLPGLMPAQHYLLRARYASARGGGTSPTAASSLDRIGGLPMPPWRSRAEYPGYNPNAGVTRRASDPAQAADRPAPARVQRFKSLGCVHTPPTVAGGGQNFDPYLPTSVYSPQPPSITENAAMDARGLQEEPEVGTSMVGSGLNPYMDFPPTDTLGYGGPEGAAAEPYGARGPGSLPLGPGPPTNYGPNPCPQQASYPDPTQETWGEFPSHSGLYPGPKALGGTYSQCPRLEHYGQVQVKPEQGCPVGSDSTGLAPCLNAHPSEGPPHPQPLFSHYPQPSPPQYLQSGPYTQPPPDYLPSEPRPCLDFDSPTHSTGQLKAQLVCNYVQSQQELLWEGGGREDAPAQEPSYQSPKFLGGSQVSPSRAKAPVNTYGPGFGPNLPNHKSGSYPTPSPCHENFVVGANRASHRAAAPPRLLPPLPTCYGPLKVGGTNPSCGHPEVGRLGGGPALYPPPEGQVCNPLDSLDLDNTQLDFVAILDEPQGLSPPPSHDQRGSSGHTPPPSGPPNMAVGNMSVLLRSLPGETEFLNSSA
UniProt Q13547: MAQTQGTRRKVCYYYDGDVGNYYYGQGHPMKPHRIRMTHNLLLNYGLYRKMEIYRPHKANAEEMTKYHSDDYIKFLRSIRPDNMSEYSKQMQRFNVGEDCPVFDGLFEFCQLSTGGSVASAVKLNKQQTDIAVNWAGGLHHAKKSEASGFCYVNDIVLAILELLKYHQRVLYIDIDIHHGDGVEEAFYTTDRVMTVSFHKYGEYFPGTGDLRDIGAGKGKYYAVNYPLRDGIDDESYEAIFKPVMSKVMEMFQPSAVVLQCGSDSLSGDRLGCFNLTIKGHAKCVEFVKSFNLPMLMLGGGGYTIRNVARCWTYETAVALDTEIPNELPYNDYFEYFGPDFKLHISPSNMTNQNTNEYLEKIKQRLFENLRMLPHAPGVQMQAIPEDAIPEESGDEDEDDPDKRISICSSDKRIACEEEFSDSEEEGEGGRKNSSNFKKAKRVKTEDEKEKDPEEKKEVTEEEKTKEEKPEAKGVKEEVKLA

The target in experiment [2] is T1, ZNF521-DDK-Flag (human). Briefly: co-IP; HEK293T co-transfected, lysed 48 h later in IP buffer (50 mM Tris/HCl pH 7.5, 250 mM NaCl, 0.1% Triton X-100, ZnCl2); IP of the Flag/DDK-tagged protein with anti-Flag-M2 and Protein G Sepharose overnight at 4 °C; Western blot; in Fig. 5a increasing amounts of the co-transfected partner.

These are yes or no findings as the source states them, for the method shown. In cells and extracts the contact can be indirect. Some results given as binding are weak or reduced against the parent protein; the word gives no strength. Where a sequence is shown, tags or fusion partners need not be part of it.

For 3xHA-GLI1 (from UniProt P08151 1-1106), the binding entry with ZNF521-DDK-Flag (human) [1] and with ZNF521-DDK-Flag (human) [2] was “binds” throughout.
For the substance “histone deacetylase 1 (HDAC1) (from UniProt Q13547 1-482) (enzyme)”, in the experiment with ZNF521-DDK-Flag (human) [2], the binding entry was “binds”.

(Values after article PMC6763495.)
